# Measurements reported in the supplement of paper PMC12819154, “High-throughput peptide-centric local stability assay extends protein–ligand identification to membrane proteins, tissues and bacteria” (Nature Structural & Molecular Biology, 2025).
# The chains behind the UniProt entries cited, without tags or fusion partners. Where a name states a change or a piece, a line headed by the entry shows the natural chain unless it says otherwise.
# UniProt Q02257: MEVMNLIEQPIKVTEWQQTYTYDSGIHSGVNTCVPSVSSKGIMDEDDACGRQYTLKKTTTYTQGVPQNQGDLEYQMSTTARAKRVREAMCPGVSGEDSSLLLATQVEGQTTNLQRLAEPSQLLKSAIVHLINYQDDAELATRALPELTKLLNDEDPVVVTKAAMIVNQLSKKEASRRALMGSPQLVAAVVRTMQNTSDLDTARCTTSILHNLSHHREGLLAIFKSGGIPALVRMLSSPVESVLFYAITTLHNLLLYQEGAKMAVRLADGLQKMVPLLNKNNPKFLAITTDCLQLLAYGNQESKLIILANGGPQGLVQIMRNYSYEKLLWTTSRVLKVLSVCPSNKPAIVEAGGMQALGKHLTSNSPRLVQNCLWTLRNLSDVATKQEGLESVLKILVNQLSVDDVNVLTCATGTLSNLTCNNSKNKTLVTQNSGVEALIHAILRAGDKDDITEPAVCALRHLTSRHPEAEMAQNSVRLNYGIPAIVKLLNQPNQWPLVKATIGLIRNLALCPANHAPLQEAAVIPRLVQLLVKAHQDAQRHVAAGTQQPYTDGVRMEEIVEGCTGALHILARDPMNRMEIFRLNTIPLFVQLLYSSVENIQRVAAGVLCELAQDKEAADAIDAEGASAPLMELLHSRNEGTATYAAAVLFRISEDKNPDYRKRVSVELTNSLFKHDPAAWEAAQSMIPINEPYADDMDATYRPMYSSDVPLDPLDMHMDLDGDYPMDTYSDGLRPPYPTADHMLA
# UniProt P97429: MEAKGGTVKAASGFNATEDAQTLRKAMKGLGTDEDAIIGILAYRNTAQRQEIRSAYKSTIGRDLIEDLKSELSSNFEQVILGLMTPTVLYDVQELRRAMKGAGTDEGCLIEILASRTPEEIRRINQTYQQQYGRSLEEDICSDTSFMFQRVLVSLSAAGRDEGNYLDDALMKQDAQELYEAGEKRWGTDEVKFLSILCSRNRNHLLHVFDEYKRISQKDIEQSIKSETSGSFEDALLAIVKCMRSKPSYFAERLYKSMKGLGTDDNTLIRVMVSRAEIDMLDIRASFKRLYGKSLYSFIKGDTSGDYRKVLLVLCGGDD
# UniProt P70213: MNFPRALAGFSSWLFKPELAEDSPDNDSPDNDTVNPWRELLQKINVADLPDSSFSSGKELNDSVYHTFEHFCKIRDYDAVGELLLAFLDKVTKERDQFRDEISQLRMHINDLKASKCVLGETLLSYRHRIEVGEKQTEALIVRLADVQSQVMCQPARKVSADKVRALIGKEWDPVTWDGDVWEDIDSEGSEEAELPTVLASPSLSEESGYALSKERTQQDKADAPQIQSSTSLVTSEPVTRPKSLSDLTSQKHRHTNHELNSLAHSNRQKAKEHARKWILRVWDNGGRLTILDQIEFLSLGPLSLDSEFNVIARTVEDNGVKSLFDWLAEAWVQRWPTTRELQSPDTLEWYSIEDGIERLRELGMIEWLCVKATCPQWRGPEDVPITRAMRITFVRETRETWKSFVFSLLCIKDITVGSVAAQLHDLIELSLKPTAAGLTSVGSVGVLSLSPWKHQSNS
# The list shows a part of the results. Small differences around the control level are noise.
# Compound: CN[C@@H]1C[C@H]2O[C@@](C)([C@@H]1OC)n1c3ccccc3c3c4c(c5c6ccccc6n2c5c31)C(=O)NC4 [staurosporine]
# Assay: log2 fold change of tryptic peptide abundance, ligand vs vehicle (limited proteolysis) (log2 ratio); higher = more trypsin-susceptible (destabilized)
# Conditions: ligand concentration: 20 uM; sample: mouse liver crude lysate; replicate design: treated separately
row,Target,log2 fold change
1,"UniProt Q02257 (peptide sequence: QEGLESVLK, peptide start residue: 386)",-0.757
2,"UniProt P97429 (peptide sequence: NHLLHVFDEYKR, peptide start residue: 203)",0.494
3,"UniProt P70213 (peptide sequence: MHINDLK, peptide start residue: 107)",0.305
